Measurements taken from the supplement of paper PMC5836539.
± gives the standard deviation of the averaged measurements. Repeats in this data set agree poorly, so a single value says little.

Sequences of proteins named here, by UniProt entry; tags and fusion partners are left off. A change or cut given only in a name is not applied to a line headed by its entry.
UniProt P27816: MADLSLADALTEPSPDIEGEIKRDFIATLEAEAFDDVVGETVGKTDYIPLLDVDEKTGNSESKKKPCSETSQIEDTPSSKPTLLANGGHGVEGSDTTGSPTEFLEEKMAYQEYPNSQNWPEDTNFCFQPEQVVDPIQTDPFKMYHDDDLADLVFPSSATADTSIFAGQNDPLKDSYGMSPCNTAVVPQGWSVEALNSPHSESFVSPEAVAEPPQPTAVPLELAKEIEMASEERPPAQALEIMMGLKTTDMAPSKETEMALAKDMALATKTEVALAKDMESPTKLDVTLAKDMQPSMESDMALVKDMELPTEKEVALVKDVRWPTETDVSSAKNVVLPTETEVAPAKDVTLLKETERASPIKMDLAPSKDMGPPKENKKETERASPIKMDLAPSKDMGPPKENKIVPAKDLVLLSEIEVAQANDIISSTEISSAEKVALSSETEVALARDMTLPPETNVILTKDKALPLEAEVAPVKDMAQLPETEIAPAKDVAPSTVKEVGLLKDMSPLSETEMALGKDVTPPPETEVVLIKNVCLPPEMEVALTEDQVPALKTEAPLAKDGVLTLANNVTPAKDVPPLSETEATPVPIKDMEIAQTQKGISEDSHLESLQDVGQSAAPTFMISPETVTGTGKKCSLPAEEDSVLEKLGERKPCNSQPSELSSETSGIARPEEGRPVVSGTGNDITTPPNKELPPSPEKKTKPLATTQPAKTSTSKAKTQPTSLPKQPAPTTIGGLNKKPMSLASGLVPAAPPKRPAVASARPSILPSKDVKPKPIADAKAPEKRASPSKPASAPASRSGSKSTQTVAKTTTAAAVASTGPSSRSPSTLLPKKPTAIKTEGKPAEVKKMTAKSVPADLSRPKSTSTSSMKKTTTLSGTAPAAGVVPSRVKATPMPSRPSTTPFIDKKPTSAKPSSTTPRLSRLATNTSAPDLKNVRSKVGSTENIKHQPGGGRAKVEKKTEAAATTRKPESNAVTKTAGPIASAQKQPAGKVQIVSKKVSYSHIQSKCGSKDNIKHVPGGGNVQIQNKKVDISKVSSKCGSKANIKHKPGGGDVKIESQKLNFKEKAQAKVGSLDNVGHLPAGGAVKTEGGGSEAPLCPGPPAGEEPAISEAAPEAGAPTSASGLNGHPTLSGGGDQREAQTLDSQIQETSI
UniProt Q9UPY8, whole entry: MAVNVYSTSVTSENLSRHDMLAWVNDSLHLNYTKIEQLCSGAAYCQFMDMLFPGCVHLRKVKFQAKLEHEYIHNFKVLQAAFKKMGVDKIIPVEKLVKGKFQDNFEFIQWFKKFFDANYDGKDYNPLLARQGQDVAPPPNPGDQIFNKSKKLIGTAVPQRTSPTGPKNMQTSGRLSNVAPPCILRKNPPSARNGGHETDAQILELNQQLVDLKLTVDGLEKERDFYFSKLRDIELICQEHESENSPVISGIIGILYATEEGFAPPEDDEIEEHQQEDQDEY
UniProt P43243: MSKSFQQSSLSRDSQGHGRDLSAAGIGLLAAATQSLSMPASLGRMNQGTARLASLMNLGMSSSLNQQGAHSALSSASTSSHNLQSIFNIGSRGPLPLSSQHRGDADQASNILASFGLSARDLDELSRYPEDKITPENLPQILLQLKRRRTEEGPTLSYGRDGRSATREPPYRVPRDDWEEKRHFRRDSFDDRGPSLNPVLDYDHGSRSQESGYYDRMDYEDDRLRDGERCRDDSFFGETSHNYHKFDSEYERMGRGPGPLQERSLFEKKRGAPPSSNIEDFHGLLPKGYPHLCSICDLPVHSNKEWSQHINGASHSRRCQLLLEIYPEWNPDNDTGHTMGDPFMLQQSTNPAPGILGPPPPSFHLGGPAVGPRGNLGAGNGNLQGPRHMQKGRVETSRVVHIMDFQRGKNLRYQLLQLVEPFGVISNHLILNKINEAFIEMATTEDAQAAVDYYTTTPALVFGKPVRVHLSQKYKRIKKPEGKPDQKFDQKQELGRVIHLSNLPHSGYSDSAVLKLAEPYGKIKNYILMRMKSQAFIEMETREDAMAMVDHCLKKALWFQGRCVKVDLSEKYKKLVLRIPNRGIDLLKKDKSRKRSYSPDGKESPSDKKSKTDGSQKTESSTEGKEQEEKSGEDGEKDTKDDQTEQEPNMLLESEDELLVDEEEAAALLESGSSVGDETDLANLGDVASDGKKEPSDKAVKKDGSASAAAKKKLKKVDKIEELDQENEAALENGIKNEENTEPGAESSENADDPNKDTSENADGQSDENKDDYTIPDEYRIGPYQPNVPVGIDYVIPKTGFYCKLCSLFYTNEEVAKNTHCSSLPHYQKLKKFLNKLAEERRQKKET
UniProt P25205: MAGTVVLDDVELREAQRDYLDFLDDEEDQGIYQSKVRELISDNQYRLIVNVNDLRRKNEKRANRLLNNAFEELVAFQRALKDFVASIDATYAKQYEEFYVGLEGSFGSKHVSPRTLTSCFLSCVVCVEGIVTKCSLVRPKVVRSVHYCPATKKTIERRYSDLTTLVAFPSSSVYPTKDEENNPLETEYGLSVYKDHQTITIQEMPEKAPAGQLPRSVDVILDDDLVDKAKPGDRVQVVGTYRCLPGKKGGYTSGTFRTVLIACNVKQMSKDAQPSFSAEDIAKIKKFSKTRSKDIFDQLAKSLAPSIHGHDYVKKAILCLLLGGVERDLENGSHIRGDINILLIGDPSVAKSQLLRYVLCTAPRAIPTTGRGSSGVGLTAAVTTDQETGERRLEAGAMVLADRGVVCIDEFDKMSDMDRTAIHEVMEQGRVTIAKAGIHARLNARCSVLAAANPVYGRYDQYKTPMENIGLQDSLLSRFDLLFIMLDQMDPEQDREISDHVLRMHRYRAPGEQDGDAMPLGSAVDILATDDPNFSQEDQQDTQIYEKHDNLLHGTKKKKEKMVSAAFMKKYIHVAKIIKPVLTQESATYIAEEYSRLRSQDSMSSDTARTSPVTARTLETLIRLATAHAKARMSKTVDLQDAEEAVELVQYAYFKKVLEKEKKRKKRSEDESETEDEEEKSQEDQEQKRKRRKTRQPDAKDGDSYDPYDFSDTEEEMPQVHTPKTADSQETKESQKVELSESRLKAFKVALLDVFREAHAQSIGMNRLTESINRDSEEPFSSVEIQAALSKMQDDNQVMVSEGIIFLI
UniProt Q15648, whole entry, looked up: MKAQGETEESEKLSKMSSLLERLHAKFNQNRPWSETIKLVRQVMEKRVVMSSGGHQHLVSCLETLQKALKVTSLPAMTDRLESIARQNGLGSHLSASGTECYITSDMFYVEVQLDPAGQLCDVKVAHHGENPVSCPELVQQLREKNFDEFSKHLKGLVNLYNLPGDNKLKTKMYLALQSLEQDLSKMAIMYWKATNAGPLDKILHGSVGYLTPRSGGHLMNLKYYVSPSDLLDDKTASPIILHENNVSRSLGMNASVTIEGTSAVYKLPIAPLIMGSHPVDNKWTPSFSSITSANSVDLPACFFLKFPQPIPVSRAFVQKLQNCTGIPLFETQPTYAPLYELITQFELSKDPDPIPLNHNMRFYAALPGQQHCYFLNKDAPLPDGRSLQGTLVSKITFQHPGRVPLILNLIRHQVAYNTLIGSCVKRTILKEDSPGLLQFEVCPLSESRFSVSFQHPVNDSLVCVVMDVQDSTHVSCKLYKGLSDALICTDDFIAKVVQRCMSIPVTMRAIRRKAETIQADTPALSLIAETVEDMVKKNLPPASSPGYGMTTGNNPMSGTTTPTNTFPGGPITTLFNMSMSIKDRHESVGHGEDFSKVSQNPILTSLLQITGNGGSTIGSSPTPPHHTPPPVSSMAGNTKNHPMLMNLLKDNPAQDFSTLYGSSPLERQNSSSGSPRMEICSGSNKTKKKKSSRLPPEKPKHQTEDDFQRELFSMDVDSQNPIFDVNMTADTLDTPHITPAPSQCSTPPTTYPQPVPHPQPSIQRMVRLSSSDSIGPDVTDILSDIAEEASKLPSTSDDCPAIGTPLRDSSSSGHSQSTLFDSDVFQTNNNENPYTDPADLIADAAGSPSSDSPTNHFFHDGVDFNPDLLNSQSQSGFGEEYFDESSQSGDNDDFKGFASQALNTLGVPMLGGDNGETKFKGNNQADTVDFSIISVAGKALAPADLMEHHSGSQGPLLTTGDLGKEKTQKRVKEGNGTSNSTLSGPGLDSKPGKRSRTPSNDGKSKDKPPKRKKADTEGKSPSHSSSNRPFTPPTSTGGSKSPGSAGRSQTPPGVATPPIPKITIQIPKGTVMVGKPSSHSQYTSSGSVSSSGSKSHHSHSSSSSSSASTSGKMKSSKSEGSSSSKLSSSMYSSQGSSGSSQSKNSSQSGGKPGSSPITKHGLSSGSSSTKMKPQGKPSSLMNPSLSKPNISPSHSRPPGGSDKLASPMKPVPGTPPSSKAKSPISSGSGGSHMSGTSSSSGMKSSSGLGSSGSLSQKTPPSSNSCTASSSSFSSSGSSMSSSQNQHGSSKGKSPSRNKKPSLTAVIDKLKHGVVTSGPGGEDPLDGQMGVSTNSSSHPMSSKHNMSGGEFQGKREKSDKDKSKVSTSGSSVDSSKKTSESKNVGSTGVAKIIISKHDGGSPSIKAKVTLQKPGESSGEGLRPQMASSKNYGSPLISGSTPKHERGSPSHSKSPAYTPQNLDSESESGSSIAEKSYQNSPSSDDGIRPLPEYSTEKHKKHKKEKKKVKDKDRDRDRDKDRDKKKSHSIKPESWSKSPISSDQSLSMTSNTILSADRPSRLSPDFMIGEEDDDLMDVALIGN
UniProt Q8N3F8: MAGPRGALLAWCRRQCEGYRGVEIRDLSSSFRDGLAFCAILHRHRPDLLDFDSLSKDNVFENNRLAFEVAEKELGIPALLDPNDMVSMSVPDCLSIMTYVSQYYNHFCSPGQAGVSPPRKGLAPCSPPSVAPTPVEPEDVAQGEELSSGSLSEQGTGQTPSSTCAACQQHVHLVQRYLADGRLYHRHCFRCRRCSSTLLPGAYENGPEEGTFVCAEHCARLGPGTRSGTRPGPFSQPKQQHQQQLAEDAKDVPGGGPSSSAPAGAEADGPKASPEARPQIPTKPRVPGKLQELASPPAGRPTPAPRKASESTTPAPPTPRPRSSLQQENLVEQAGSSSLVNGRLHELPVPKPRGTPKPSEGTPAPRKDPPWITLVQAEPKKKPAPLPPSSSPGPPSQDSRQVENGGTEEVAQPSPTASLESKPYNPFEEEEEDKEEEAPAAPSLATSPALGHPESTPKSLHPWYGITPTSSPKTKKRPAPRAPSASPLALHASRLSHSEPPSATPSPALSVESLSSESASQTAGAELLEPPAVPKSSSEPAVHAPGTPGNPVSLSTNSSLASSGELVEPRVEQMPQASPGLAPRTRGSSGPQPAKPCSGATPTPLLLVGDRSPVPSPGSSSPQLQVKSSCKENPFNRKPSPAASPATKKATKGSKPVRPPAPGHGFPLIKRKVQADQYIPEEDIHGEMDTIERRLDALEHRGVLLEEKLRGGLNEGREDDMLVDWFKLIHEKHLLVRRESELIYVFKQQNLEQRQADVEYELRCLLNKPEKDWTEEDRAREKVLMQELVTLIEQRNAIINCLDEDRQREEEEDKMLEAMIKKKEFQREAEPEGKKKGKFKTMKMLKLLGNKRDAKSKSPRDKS
UniProt Q6WCQ1: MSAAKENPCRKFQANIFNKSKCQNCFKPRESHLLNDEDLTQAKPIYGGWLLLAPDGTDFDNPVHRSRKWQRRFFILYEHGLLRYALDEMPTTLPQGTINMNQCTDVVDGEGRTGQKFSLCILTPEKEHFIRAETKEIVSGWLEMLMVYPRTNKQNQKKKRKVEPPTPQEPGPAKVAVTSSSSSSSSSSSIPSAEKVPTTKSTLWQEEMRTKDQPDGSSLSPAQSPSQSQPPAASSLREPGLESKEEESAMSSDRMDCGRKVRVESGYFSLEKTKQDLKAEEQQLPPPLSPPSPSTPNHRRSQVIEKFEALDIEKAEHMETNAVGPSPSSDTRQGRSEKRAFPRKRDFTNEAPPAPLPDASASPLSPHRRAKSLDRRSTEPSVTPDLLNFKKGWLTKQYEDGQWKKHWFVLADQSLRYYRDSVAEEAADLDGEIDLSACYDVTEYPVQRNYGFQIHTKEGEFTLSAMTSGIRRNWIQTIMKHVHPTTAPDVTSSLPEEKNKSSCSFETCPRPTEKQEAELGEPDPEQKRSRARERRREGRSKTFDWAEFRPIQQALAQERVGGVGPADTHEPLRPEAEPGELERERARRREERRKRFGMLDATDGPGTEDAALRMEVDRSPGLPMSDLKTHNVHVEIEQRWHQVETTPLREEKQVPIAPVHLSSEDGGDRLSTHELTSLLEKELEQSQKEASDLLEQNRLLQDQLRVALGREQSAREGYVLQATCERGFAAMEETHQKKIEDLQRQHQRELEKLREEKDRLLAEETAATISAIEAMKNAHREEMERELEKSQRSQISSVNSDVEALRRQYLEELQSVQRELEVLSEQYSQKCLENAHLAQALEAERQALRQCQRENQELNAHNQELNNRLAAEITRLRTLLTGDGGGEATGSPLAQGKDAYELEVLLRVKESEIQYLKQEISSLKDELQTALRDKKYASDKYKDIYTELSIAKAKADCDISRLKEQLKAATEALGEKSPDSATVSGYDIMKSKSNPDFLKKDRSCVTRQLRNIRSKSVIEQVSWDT

Compound: CC[C@@H](C)Nc1cc(C(=O)N[C@H]2C[C@H]3CC[C@@H](C2)N3c2ccc(C(=O)C3CC3)cn2)c(C)cc1C(N)=O [XL888]
Assay: phosphopeptide melting temperature shift (XL888 minus DMSO); higher = stabilised by drug treatment
Settings: 100 µM; treatment time 2 h; layout: intact cells; SK-Mel 28
Description: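 Phospho-TPP in intact SK-Mel 28 cells treated with 100 uM XL888 or DMSO for 2 h, heated at 10 temperatures (37-67 C) for 3 min, soluble fraction TMT10plex-labelled and TiO2 phospho-enriched. Melting curves were fitted per phosphopeptide; the value is the melting point difference (drug minus vehicle) in each of two biological replicates.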

| Target | phosphopeptide melting temperature shift [°C] |
| --- | --- |
| MAP1B phosphosite_992 (phosphosite position: 992) (UniProt P46821) | 0.6 ± 1.5 |
| MAP1B phosphosite_995 (phosphosite position: 995) (UniProt P46821) | 0.529 ± 1.4 |
| MAP1B phosphosite_1208 (phosphosite position: 1208) (UniProt P46821) | 2.18 |
| MAP1B phosphosite_1298 (phosphosite position: 1298) (UniProt P46821) | 0.0994 ± 0.45 |
| MAP1B phosphosite_1312 (phosphosite position: 1312) (UniProt P46821) | 0.0994 ± 0.45 |
| MAP1B phosphosite_1339 (phosphosite position: 1339) (UniProt P46821) | -3.97 |
| MAP1B phosphosite_1389 (phosphosite position: 1389) (UniProt P46821) | 0.113 |
| MAP1B phosphosite_1396 (phosphosite position: 1396) (UniProt P46821) | -1.11 ± 1.8 |
| MAP1B phosphosite_1400 (phosphosite position: 1400) (UniProt P46821) | 0.818 ± 0.87 |
| MAP1B phosphosite_1406 (phosphosite position: 1406) (UniProt P46821) | -1.91 |
| MAP1B phosphosite_1427 (phosphosite position: 1427) (UniProt P46821) | 2.99 |
| MAP1B phosphosite_1438 (phosphosite position: 1438) (UniProt P46821) | 0.016 ± 0.35 |
| MAP1B phosphosite_1618 (phosphosite position: 1618) (UniProt P46821) | -0.928 ± 1.7 |
| MAP1B phosphosite_1620 (phosphosite position: 1620) (UniProt P46821) | -1.16 ± 1.4 |
| MAP1B phosphosite_1779 (phosphosite position: 1779) (UniProt P46821) | 2.22 ± 1.4 |
| MAP1B phosphosite_1782 (phosphosite position: 1782) (UniProt P46821) | 0.822 ± 0.58 |
| MAP1B phosphosite_1785 (phosphosite position: 1785) (UniProt P46821) | 0.976 ± 0.37 |
| MAP1B phosphosite_1793 (phosphosite position: 1793) (UniProt P46821) | 0.616 ± 0.2 |
| MAP1B phosphosite_1797 (phosphosite position: 1797) (UniProt P46821) | 0.616 ± 0.2 |
| MAP1B phosphosite_1881 (phosphosite position: 1881) (UniProt P46821) | 2.54 |
| MAP4 phosphosite_620 (phosphosite position: 620) (UniProt P27816) | -1.56 |
| MAP4 phosphosite_624 (phosphosite position: 624) (UniProt P27816) | -0.559 |
| MAP4 phosphosite_1073 (phosphosite position: 1073) (UniProt P27816) | 3.27 |
| MAPRE3 phosphosite_161 (phosphosite position: 161) (UniProt Q9UPY8) | -0.0922 |
| MATR3 phosphosite_188 (phosphosite position: 188) (UniProt P43243) | -5.67 |
| MATR3 phosphosite_596 (phosphosite position: 596) (UniProt P43243) | 0.147 |
| MATR3 phosphosite_766 (phosphosite position: 766) (UniProt P43243) | 0.8 ± 1.4 |

A run of entries taken from the entries so far:

| Target | phosphopeptide melting temperature shift [°C] |
| --- | --- |
| MAP1B phosphosite_1389 (phosphosite position: 1389) (UniProt P46821) | 0.113 |
| MAP1B phosphosite_1396 (phosphosite position: 1396) (UniProt P46821) | -1.11 ± 1.8 |
| MAP1B phosphosite_1400 (phosphosite position: 1400) (UniProt P46821) | 0.818 ± 0.87 |
| MAP1B phosphosite_1406 (phosphosite position: 1406) (UniProt P46821) | -1.91 |
| MAP1B phosphosite_1427 (phosphosite position: 1427) (UniProt P46821) | 2.99 |
| MAP1B phosphosite_1438 (phosphosite position: 1438) (UniProt P46821) | 0.016 ± 0.35 |
| MAP1B phosphosite_1618 (phosphosite position: 1618) (UniProt P46821) | -0.928 ± 1.7 |
| MAP1B phosphosite_1620 (phosphosite position: 1620) (UniProt P46821) | -1.16 ± 1.4 |
| MAP1B phosphosite_1779 (phosphosite position: 1779) (UniProt P46821) | 2.22 ± 1.4 |
| MAP1B phosphosite_1782 (phosphosite position: 1782) (UniProt P46821) | 0.822 ± 0.58 |
| MAP1B phosphosite_1785 (phosphosite position: 1785) (UniProt P46821) | 0.976 ± 0.37 |

More entries follow.

| Target | phosphopeptide melting temperature shift [°C] |
| --- | --- |
| MCM3 phosphosite_681 (phosphosite position: 681) (UniProt P25205) | 0.0477 ± 2.1 |
| MCM3 phosphosite_711 (phosphosite position: 711) (UniProt P25205) | -0.826 ± 1.2 |
| MCM3 phosphosite_713 (phosphosite position: 713) (UniProt P25205) | 0.285 ± 0.32 |
| MCM3 phosphosite_722 (phosphosite position: 722) (UniProt P25205) | 0.112 ± 1.3 |
| MCM3 phosphosite_728 (phosphosite position: 728) (UniProt P25205) | 0.892 ± 1.3 |
| MDN1 phosphosite_4538 (phosphosite position: 4538) (UniProt Q9NU22) | -1.14 ± 0.36 |
| MECP2 phosphosite_80 (phosphosite position: 80) (UniProt P51608) | 1.55 ± 0.35 |
| MED1 phosphosite_770 (phosphosite position: 770) (UniProt Q15648) | 0.592 ± 0.94 |
| MED1 phosphosite_771 (phosphosite position: 771) (UniProt Q15648) | 1.31 ± 0.66 |
| MED1 phosphosite_774 (phosphosite position: 774) (UniProt Q15648) | 1.61 ± 1.1 |
| MED1 phosphosite_1479 (phosphosite position: 1479) (UniProt Q15648) | -0.335 ± 0.33 |
| MED1 phosphosite_1481 (phosphosite position: 1481) (UniProt Q15648) | -0.963 ± 0.56 |
| MED1 phosphosite_1482 (phosphosite position: 1482) (UniProt Q15648) | -0.335 ± 0.33 |
| MED13 phosphosite_890 (phosphosite position: 890) (UniProt Q9UHV7) | 1.05 |
| MICAL3 phosphosite_1310 (phosphosite position: 1310) (UniProt Q7RTP6) | 0.77 |
| MICAL3 phosphosite_1371 (phosphosite position: 1371) (UniProt Q7RTP6) | 1.54 ± 0.46 |
| MICALL1 phosphosite_273 (phosphosite position: 273) (UniProt Q8N3F8) | 0.141 |
| MICALL1 phosphosite_484 (phosphosite position: 484) (UniProt Q8N3F8) | -2.53 |
| MICALL1 phosphosite_486 (phosphosite position: 486) (UniProt Q8N3F8) | -2.36 |
| MLLT1 phosphosite_475 (phosphosite position: 475) (UniProt Q03111) | 0.778 ± 3.2 |
| MPRIP phosphosite_220 (phosphosite position: 220) (UniProt Q6WCQ1) | 1.45 |
| MPRIP phosphosite_224 (phosphosite position: 224) (UniProt Q6WCQ1) | 1.45 |
| MPRIP phosphosite_993 (phosphosite position: 993) (UniProt Q6WCQ1) | 1.65 |
| MTMR1 phosphosite_655 (phosphosite position: 655) (UniProt Q13613) | -1.59 |
| MTMR6 phosphosite_561 (phosphosite position: 561) (UniProt Q9Y217) | 1.28 |
| MTOR phosphosite_1261 (phosphosite position: 1261) (UniProt P42345) | -1.75 ± 1.2 |
